Data reported in paper PMC5766157.
Results are given in words; binding and its absence hold for the method and conditions named. Binding seen in cells or lysates may run through a third protein. Some entries that bind do so weakly or less than the wild type. Where a sequence is shown, tags or fusion partners need not be part of it.

Amino acid sequences for entries named in this document (tags omitted).
UniProt P13864: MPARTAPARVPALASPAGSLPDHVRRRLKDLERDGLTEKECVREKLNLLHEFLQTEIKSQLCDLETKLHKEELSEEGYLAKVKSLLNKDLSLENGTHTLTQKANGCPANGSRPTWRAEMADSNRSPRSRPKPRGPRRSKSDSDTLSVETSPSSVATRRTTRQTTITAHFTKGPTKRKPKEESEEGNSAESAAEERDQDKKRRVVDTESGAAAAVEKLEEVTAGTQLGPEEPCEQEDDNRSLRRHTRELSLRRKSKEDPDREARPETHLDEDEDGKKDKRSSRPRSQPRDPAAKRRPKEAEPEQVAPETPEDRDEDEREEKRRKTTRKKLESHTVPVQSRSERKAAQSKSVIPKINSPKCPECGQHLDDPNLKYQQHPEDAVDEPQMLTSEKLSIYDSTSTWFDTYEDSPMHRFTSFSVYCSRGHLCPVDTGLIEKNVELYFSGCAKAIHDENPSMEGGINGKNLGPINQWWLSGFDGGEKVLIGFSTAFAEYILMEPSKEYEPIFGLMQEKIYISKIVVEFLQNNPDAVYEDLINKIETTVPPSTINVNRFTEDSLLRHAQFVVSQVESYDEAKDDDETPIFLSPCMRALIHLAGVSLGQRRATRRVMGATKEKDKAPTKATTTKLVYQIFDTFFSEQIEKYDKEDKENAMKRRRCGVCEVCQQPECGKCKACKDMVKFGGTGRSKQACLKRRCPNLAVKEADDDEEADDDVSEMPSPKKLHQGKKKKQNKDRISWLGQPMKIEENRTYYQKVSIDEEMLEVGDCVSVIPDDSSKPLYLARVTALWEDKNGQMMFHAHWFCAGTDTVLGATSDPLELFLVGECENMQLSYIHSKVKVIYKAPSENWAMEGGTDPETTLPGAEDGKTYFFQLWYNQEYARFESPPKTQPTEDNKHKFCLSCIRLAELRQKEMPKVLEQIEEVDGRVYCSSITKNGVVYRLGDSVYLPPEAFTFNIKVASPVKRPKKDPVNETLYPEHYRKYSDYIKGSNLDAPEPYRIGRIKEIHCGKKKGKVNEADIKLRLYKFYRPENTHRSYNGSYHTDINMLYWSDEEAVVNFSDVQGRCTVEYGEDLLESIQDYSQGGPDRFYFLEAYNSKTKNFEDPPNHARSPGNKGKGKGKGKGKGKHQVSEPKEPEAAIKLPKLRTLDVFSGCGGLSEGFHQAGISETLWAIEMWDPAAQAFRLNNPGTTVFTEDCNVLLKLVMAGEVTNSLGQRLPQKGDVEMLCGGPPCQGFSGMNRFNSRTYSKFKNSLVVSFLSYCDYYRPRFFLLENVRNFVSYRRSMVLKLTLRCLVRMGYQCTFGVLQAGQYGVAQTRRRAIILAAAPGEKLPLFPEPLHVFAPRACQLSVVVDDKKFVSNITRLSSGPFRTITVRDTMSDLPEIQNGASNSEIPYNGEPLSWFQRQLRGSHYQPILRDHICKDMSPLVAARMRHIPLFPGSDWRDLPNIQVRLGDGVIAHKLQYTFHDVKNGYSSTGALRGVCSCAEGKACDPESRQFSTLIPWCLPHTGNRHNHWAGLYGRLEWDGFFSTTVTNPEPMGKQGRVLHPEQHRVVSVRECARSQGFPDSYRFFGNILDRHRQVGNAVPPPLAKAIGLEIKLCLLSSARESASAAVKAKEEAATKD

Target: T1, epitope-tagged DROSHA from Drosha^Tag/Tag ES cells (mouse (endogenous in ES cells)) (UniProt Q5HZJ0)
T1 sequence: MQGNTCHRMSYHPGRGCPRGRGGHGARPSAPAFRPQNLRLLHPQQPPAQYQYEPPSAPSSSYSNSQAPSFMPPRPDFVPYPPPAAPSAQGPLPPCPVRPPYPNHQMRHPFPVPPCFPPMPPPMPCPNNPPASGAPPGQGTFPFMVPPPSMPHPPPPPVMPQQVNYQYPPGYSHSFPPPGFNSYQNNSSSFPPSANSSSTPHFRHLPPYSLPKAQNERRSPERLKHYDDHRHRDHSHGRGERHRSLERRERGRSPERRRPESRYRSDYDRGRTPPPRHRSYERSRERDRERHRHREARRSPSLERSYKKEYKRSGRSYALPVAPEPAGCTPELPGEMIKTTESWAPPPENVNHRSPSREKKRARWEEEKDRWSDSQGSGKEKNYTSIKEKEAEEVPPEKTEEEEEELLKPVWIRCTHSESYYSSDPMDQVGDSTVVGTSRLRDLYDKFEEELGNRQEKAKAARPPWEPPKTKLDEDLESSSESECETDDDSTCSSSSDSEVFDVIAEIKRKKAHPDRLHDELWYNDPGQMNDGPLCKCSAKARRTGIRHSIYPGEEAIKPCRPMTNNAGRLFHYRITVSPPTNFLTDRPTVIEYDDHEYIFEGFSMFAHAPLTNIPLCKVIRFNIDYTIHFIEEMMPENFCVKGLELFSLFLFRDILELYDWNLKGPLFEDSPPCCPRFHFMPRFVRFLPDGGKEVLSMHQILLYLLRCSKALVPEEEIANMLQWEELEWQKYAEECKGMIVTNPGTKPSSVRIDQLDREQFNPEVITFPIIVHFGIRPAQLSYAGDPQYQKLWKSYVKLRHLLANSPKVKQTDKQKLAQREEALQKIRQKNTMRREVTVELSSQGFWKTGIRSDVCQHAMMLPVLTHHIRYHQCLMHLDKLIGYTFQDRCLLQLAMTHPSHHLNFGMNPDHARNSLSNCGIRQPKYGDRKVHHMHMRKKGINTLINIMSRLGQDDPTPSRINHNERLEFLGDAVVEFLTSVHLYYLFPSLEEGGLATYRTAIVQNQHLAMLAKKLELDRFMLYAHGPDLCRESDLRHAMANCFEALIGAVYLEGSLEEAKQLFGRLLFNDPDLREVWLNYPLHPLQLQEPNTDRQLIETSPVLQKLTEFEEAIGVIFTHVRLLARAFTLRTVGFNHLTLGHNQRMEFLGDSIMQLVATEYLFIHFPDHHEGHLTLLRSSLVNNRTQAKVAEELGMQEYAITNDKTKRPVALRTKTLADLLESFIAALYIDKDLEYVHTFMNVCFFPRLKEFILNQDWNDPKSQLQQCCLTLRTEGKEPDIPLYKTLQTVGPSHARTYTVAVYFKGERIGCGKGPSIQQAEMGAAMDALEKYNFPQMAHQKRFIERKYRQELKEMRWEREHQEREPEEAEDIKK
Test: co-IP; anti-FLAG M2 magnetic beads on sonicated ES cell lysates (20 mM Tris-HCl pH 7.4, 200 mM NaCl, 2.5 mM MgCl2, 0.05% Tween-20), then western blot

DNMT1 (DNA methyltransferase 1), untagged (from UniProt P13864 1-1620) (enzyme)
binding: binds
